# Experimental data reported in US10273243B2, “4-phenylpiperidines, their preparation and use” (The Trustees of Columbia University in the City of New York, priority 2013, dated 2019).
# Some entries share one result that the patent states for a list of compounds.
# Key:
# RBP4 = RBP4 (Homo sapiens, UniProt P02753); test: Scintillation proximity RBP4 binding assay (SPA); parameters: Untagged human RBP4 purified from urine of tubular proteinuria patients was purchased from Fitzgerald Industries International; purchased Fitzgerald Industries International; host or cells: human urine (tubular proteinuria patients); conditions: in vitro; stated 'and/or' with RBP4-TTR antagonism; numbers only in FIG. 8-14
# RBP4-TTR interaction = target: T1, RBP4-TTR interaction (Homo sapiens, UniProt P02753); test: TR-FRET (HTRF) assay for retinol-induced RBP4-TTR interaction; type: biochemical; conditions: in vitro; stated 'and/or' with RBP4 binding; numbers only in FIG. 8-14
# T1 construct: human RBP4 fragment (amino acids 19-201) was expressed in the Gold (DE3)pLysS E. coli strain; host or cells: E. coli Gold (DE3)pLysS (Stratagene), pMAL-c4x vector
Compound,RBP4 binding (SPA) (RBP4),antagonism of retinol-dependent RBP4-TTR interaction (HTRF) (RBP4-TTR interaction)
CS(=O)(=O)N1CCc2c(C(=O)N3CCC(c4ccccc4C(F)(F)F)CC3)n[nH]c2C1 [Compound 15],bind RBP4 in vitro,antagonize RBP4-TTR interaction in vitro at biologically significant concentrations
CS(=O)(=O)N1CCc2[nH]nc(C(=O)N3CCC(c4ccccc4C(F)(F)F)CC3)c2C1 [Compound 16],bind RBP4 in vitro,antagonize RBP4-TTR interaction in vitro at biologically significant concentrations
CCS(=O)(=O)N1CCc2[nH]nc(C(=O)N3CCC(c4ccccc4C(F)(F)F)CC3)c2C1 [Compound 17],bind RBP4 in vitro,antagonize RBP4-TTR interaction in vitro at biologically significant concentrations
CC(C)CS(=O)(=O)N1CCc2[nH]nc(C(=O)N3CCC(c4ccccc4C(F)(F)F)CC3)c2C1 [Compound 18],bind RBP4 in vitro,antagonize RBP4-TTR interaction in vitro at biologically significant concentrations
CC(C)S(=O)(=O)N1CCc2[nH]nc(C(=O)N3CCC(c4ccccc4C(F)(F)F)CC3)c2C1 [Compound 19],bind RBP4 in vitro,antagonize RBP4-TTR interaction in vitro at biologically significant concentrations
CS(=O)(=O)N1Cc2[nH]nc(C(=O)N3CCC(c4ccccc4C(F)(F)F)CC3)c2C1 [Compound 20],bind RBP4 in vitro,antagonize RBP4-TTR interaction in vitro at biologically significant concentrations
O=C(c1n[nH]c2c1CN(S(=O)(=O)CCl)CC2)N1CCC(c2ccccc2C(F)(F)F)CC1 [Compound 21],bind RBP4 in vitro,antagonize RBP4-TTR interaction in vitro at biologically significant concentrations
CCS(=O)(=O)N1CCc2c(C(=O)N3CCC(c4ccccc4C(F)(F)F)CC3)n[nH]c2C1 [Compound 22],bind RBP4 in vitro,antagonize RBP4-TTR interaction in vitro at biologically significant concentrations
CC(C)S(=O)(=O)N1CCc2c(C(=O)N3CCC(c4ccccc4C(F)(F)F)CC3)n[nH]c2C1 [Compound 23],bind RBP4 in vitro,antagonize RBP4-TTR interaction in vitro at biologically significant concentrations
CCS(=O)(=O)N1Cc2[nH]nc(C(=O)N3CCC(c4ccccc4C(F)(F)F)CC3)c2C1 [Compound 24],bind RBP4 in vitro,antagonize RBP4-TTR interaction in vitro at biologically significant concentrations
CC(C)S(=O)(=O)N1Cc2[nH]nc(C(=O)N3CCC(c4ccccc4C(F)(F)F)CC3)c2C1 [Compound 25],bind RBP4 in vitro,antagonize RBP4-TTR interaction in vitro at biologically significant concentrations
CC(C)CS(=O)(=O)N1Cc2[nH]nc(C(=O)N3CCC(c4ccccc4C(F)(F)F)CC3)c2C1 [Compound 26],bind RBP4 in vitro,antagonize RBP4-TTR interaction in vitro at biologically significant concentrations
O=C(c1n[nH]c2c1CCNC2)N1CCC(c2ccccc2C(F)(F)F)CC1 [Compound 27],bind RBP4 in vitro,antagonize RBP4-TTR interaction in vitro at biologically significant concentrations
O=C(c1n[nH]c2c1CNCC2)N1CCC(c2ccccc2C(F)(F)F)CC1 [Compound 28],bind RBP4 in vitro,antagonize RBP4-TTR interaction in vitro at biologically significant concentrations
O=C(c1n[nH]c2ncccc12)N1CCC(c2ccccc2C(F)(F)F)CC1 [Compound 29],bind RBP4 in vitro,antagonize RBP4-TTR interaction in vitro at biologically significant concentrations
CN1CCc2c(C(=O)N3CCC(c4ccccc4C(F)(F)F)CC3)n[nH]c2C1 [Compound 30],bind RBP4 in vitro,antagonize RBP4-TTR interaction in vitro at biologically significant concentrations
CN1Cc2[nH]nc(C(=O)N3CCC(c4ccccc4C(F)(F)F)CC3)c2C1 [Compound 31],bind RBP4 in vitro,antagonize RBP4-TTR interaction in vitro at biologically significant concentrations
CCN1CCc2[nH]nc(C(=O)N3CCC(c4ccccc4C(F)(F)F)CC3)c2C1 [Compound 32],bind RBP4 in vitro,antagonize RBP4-TTR interaction in vitro at biologically significant concentrations

Compound,RBP4 binding (SPA) (RBP4),antagonism of retinol-dependent RBP4-TTR interaction (HTRF) (RBP4-TTR interaction)
CN1CCCc2[nH]nc(C(=O)N3CCC(c4ccccc4C(F)(F)F)CC3)c2C1 [Compound 33],bind RBP4 in vitro,antagonize RBP4-TTR interaction in vitro at biologically significant concentrations
CC(C)CN1CCc2[nH]nc(C(=O)N3CCC(c4ccccc4C(F)(F)F)CC3)c2C1 [Compound 34],bind RBP4 in vitro,antagonize RBP4-TTR interaction in vitro at biologically significant concentrations
O=C(c1n[nH]c2c1CN(C1COC1)CC2)N1CCC(c2ccccc2C(F)(F)F)CC1 [Compound 35],bind RBP4 in vitro,antagonize RBP4-TTR interaction in vitro at biologically significant concentrations
COCCN1CCc2[nH]nc(C(=O)N3CCC(c4ccccc4C(F)(F)F)CC3)c2C1 [Compound 36],bind RBP4 in vitro,antagonize RBP4-TTR interaction in vitro at biologically significant concentrations
O=C(c1n[nH]c2c1CN(C1COC1)C2)N1CCC(c2ccccc2C(F)(F)F)CC1 [Compound 37],bind RBP4 in vitro,antagonize RBP4-TTR interaction in vitro at biologically significant concentrations
Cn1nc(C(=O)N2CCC(c3ccccc3C(F)(F)F)CC2)c2c1CCOC2 [Compound 38],bind RBP4 in vitro,antagonize RBP4-TTR interaction in vitro at biologically significant concentrations
O=C(c1nnc2ccc(F)cn12)N1CCC(c2ccccc2C(F)(F)F)CC1 [Compound 39],bind RBP4 in vitro,antagonize RBP4-TTR interaction in vitro at biologically significant concentrations
COc1ccc2nnc(C(=O)N3CCC(c4ccccc4C(F)(F)F)CC3)n2c1 [Compound 40],bind RBP4 in vitro,antagonize RBP4-TTR interaction in vitro at biologically significant concentrations
O=C(c1nnc2n1CCOC2)N1CCC(c2ccccc2C(F)(F)F)CC1 [Compound 41],bind RBP4 in vitro,antagonize RBP4-TTR interaction in vitro at biologically significant concentrations
O=C(c1nnc2ccc(Cl)cn12)N1CCC(c2ccccc2C(F)(F)F)CC1 [Compound 43],bind RBP4 in vitro,antagonize RBP4-TTR interaction in vitro at biologically significant concentrations
CCOc1ccc2nnc(C(=O)N3CCC(c4ccccc4C(F)(F)F)CC3)n2c1 [Compound 45],bind RBP4 in vitro,antagonize RBP4-TTR interaction in vitro at biologically significant concentrations
CC(C)(C)C(=O)N1Cc2[nH]nc(C(=O)N3CCC(c4ccccc4C(F)(F)F)CC3)c2C1 [Compound 46],bind RBP4 in vitro,antagonize RBP4-TTR interaction in vitro at biologically significant concentrations
O=C(c1nnc2cc(C(F)(F)F)ccn12)N1CCC(c2ccccc2C(F)(F)F)CC1 [Compound 48],bind RBP4 in vitro,antagonize RBP4-TTR interaction in vitro at biologically significant concentrations
Cc1ccn2c(C(=O)N3CCC(c4ccccc4C(F)(F)F)CC3)nnc2c1 [Compound 49],bind RBP4 in vitro,antagonize RBP4-TTR interaction in vitro at biologically significant concentrations
NC(=O)c1ccc2nnc(C(=O)N3CCC(c4ccccc4C(F)(F)F)CC3)n2c1 [Compound 50],bind RBP4 in vitro,antagonize RBP4-TTR interaction in vitro at biologically significant concentrations
CNC(=O)c1ccc2nnc(C(=O)N3CCC(c4ccccc4C(F)(F)F)CC3)n2c1 [Compound 51],bind RBP4 in vitro,antagonize RBP4-TTR interaction in vitro at biologically significant concentrations
CN(C)C(=O)c1ccc2nnc(C(=O)N3CCC(c4ccccc4C(F)(F)F)CC3)n2c1 [Compound 52],bind RBP4 in vitro,antagonize RBP4-TTR interaction in vitro at biologically significant concentrations
O=C(O)c1ccc2nnc(C(=O)N3CCC(c4ccccc4C(F)(F)F)CC3)n2c1 [Compound 53],bind RBP4 in vitro,antagonize RBP4-TTR interaction in vitro at biologically significant concentrations
